# Library screening results

Measurements from “University of Dundee, Small-Polar-MMV Screening Library” (2021), ChEMBL document CHEMBL3988442.

A: 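Whole-cell assay for inhibitors of Mycobacterium tuberculosis growth, labelled Cornell in the record; the read-out is not stated. The concentration is filed as 10 mM, unlikely as a test dose, so the dose is not known. The record gives no direction; compounds strong in two other growth screens of this library score well above the rest, so higher reads as stronger inhibition. About 53,000 compounds were tested under these conditions; 1.7% (about 900) showed 50% or more at least once.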
B: 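Assay on Mycobacterium tuberculosis, filed only as a heat shock assay from Cornell; the read-out is not stated. The concentration is filed as 10 mM, unlikely as a test dose, so the dose is not known. The record gives no direction; compounds that gave an IC50 in retests scored well above the rest, so higher reads as stronger inhibition. Of about 69,000 compounds tested this way, about 930 (1.4%) reached 50% or more in at least one test.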

Results are given as percent effect.
The record does not define 0% and 100%; most values in the screen are far below 50% and negative numbers occur (in some assays of this library far below -100).
This is an unselected part of the compounds tested.

CCOc1ccc(CN2CCNC(C(=O)NC3CC3)C2)cc1CO (centres unmarked) read A: -10.65%; B: 1.458%.
CS(=O)(=O)N1CCC(CNc2cc(Cl)ccc2C#N)CC1 read A: -6.261%; B: 12.56%.
CCn1ccnc1CN1CCCN(C(=O)c2ccnc(C)n2)CC1 read B: 13.48%.
O=C(NCc1ccccn1)NC1CCOc2ccccc21 (centres unmarked) read A: -2.352%; B: 1.85%.
O=C(O)C(F)(F)F.O=C(O)C(F)(F)F.O=C(O)C(F)(F)F.[H][C@@]12CN(Cc3ccncc3)C[C@]1([H])OCCN2CC1CCCO1 (some centres unmarked) read A: 22.56%; B: -18.75%.
[H][C@]12CC[C@]([H])(CN(c3ncccn3)C1)N(Cc1ccc(S(C)(=O)=O)cc1)C2 read A: 6.783%; B: -20.48%.
Cc1oc(C(=O)Nc2ccccc2F)cc1S(N)(=O)=O read A: 15.1%; B: 2.068%.
COCCS(=O)(=O)Nc1cc(Cl)ccn1 read A: -5.061%; B: -1.507%.
COc1ccccc1C(=O)Nc1cc(CC(C)C)nn1C read A: 2.3%; B: -6.95%.
CC(=O)Nc1nc(C(=O)N2CCCC(n3cncn3)C2)cs1 (centres unmarked) read A: -13.7%; B: 2.621%.
CCC1CN(C(=O)c2cnc(-c3cnn(C)c3)s2)CCO1 (centres unmarked) read A: -9.79%; B: -0.1713%.
CC(=O)NCCCSC1CCCN(c2ccccc2Cl)C1=O (centres unmarked) read A: -29.2%; B: 12.9%.
CCN(Cc1cc(Cl)ccc1OC)Cc1ncnn1CC read A: -16.59%; B: -9.492%.
Cc1ccc2c(c1)C1(CCNCC1)CN2C(=O)C(C)C read A: -34.89%; B: -17.49%.
CCOc1ccc2cc(C(=O)NCCNc3ccc(C)nn3)[nH]c2c1 read A: -32.47%; B: -45.13%.
COC1CCCN(C(=O)NCc2ccc(C(=O)N(C)C(C)C)cc2)C1 (centres unmarked) read A: -37.59%; B: -15.13%.
CN(CC(=O)N(C)C)Cc1ccc(C#N)cc1F read B: -0.2714%.
COc1cc(C)nc(N2CCN(C(=O)c3ccc[nH]3)CC2)n1 read A: 9.63%; B: 8.443%.
CN(CC(=O)Nc1ccc(Br)cn1)C(=O)C(C)(C)C read A: -3.826%; B: -11.79%.
CCCN1Cc2nc(N3CCCC3)ncc2C1=O read A: 14.62%; B: -2.465%.
CC(C)C(C(=O)N1CCCN(c2nccs2)CC1)n1cncn1 (centres unmarked) read B: -3.422%.
[H][C@@]12CCCO[C@]1([H])[C@H](NC(=O)C1CC1)CN2Cc1cccc(C#N)c1 read A: 27.93%; B: -3.853%.
Cc1nnc2n1CCN(C(=O)C(OC1CCCC1)c1ccccc1)C2 (centres unmarked) read A: 8.013%; B: -30.29%.
CN1CCC(NC(=O)Nc2ccc(F)c(-n3cccc3)c2)C1=O (centres unmarked) read A: 84.66%; B: 9.262%.
CN1CCC(CNC(=O)c2ccc(O)nc2)c2ccccc21 (centres unmarked) read A: -16.89%; B: 10.05%.
COc1cccc(CNCc2cccc(Cl)c2)c1O read A: 2.888%; B: 17.65%.
CC(C)c1noc(C(C)N2CCN(Cc3cccc(C#N)c3)CC2)n1 (centres unmarked) read A: 0.582%; B: 19.84%.
COc1c(C2CCCN2C(=O)c2cnn(C)c2C2CC2)c(C)nn1C (centres unmarked) read A: -5.517%; B: -9.085%.
O=C(O)C(F)(F)F.c1cnc(NC2COC3(CCN(Cc4cccs4)CC3)C2)nc1 (centres unmarked) read A: 15.33%; B: -17.17%.
CN1CCN(S(=O)(=O)c2cccc(C#N)c2)c2ccc(F)cc21 read B: -42.7%.
Cc1cccn2cc(CNS(=O)(=O)N3CCOCC3)nc12 read B: 7.572%.
COc1ccc(-n2nc(C(C)C)nc2Cn2cncn2)cc1 read A: 16.35%; B: -22.14%.
Cc1nc(NCCSc2cnn[nH]2)c2cccnc2n1 read B: -12.64%.
O=C(c1ccc(Br)cc1F)N1CCc2ccncc21 read A: -3.524%; B: 1.785%.
CC(C)OCCCN(Cc1ccncc1)Cc1cccc(F)c1.Cl read A: -13.76%; B: -14.8%.
CNS(=O)(=O)c1ccc(CN2CCN(Cc3ncccc3C)CC2)cc1 read A: -16.1%; B: -13.02%.
Cc1ccc(CNC(=O)N2CCOCC2C2CC2)cc1F (centres unmarked) read A: -38.32%; B: 3.252%.
Cc1cnc2[nH]c(C(F)(F)F)c(CN3CCCC(CO)C3)c2c1 (centres unmarked) read A: -5.346%; B: 8.333%.
O=C(c1coc(CN2CCN(c3ccccc3F)CC2)n1)N1CC=CC1 read A: -1.221%; B: 0.5332%.
O=C1N(CC2CC2)C2(CCSCC2)NC12CCCC2 read A: 15.67%; B: -8.721%.
CCn1ncc(-c2nc3c[nH]n(CC)c-3n2)c1C read A: -23.35%; B: 3.398%.
CNC(=O)[C@@H](c1ccccc1OC)N1CCC[C@H]1C(=O)NC1CC1.Cl read A: 5.253%; B: -2.001%.